From publication doi:10.1101/478008

Key:
[1] = target: T1, MBP-Zfs1 (full-length S. pombe Zfs1, N-terminal maltose-binding protein fusion) (S. pombe) (UniProt P47979); experiment: pull-down
T1 sequence: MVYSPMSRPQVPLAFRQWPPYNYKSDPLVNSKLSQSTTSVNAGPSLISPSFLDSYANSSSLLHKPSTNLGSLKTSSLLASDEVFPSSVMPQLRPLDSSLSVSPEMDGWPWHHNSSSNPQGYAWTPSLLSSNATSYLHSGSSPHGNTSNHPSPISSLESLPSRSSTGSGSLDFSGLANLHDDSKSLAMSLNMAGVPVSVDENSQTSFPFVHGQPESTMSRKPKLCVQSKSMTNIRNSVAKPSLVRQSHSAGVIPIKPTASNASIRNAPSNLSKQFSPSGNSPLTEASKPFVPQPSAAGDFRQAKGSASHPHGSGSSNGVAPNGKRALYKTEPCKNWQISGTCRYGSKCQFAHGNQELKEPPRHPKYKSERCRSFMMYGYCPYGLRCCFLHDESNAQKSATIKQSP

[2] = target: T2, MBP-Puf3 (full-length S. pombe Puf3, N-terminal maltose-binding protein fusion) (S. pombe) (UniProt O94462); experiment: pull-down
T2 sequence: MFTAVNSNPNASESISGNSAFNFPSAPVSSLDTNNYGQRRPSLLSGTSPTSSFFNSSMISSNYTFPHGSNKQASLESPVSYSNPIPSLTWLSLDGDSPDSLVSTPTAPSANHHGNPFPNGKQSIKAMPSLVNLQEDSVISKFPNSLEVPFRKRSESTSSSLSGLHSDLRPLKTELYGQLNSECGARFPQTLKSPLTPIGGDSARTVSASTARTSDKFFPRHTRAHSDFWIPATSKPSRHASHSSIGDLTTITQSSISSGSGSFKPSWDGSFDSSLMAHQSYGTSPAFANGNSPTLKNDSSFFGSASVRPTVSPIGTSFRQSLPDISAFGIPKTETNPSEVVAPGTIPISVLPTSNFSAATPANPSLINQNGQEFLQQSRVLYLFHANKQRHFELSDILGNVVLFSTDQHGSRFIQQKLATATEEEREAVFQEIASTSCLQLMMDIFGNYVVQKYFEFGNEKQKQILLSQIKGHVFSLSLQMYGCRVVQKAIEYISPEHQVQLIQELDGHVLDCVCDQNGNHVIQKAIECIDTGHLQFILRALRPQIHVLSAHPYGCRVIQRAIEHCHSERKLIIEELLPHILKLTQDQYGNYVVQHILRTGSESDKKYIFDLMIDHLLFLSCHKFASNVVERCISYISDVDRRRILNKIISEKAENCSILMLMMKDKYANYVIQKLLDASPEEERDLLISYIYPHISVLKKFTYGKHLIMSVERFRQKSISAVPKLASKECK

- binding [1]: binds
- binding [2]: binds
Substance: Ccr4-Not complex (intact recombinant seven-subunit S. pombe complex) (Schizosaccharomyces pombe)

These are yes or no findings as the source states them, for the method shown. Binding calls can cover weak binding; strength is not graded here. Tags and fused reporters may be left off the sequences shown.
